Counter-ions that a name gives are not always drawn. Some of the results follow. Repeats in this data set agree poorly, so a single value says little.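 Human fetal ventral-midbrain neural progenitor line ReNCell VM, differentiated without mitogens. Images stained for doublecortin (early neurons) or tyrosine hydroxylase (dopaminergic neurons) were scored by blinded raters against untreated wells (0 = no change). Repeats and both raters were averaged, and compounds averaging 2 or higher were picked as hits for retesting.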
Key:
ReNCell VM [1] = test: neuronal differentiation score (DCX+ cell fraction vs untreated, manual image score) (score (-3 to 3)); higher = more neuronal differentiation; conditions: 2 uM, 2 weeks
ReNCell VM [2] = test: dopaminergic neuron differentiation score (TH+ cell fraction vs untreated, manual image score) (score (0 to 3)); higher = more TH+ dopaminergic neuron differentiation; conditions: 2 uM, 4 weeks, BDNF 10 ng/ml + GDNF 10 ng/ml

OC[C@H]1O[C@@H](n2cnc3c(NC4CCCC4)ncnc32)[C@H](O)[C@@H]1O [N6-Cyclopentyladenosine]
inactive: neuronal differentiation score (ReNCell VM [1]; library: LOPAC) -3 | neuronal differentiation score (ReNCell VM [1]; library: Tocriscreen) 1 | dopaminergic neuron differentiation score (ReNCell VM [2]; library: LOPAC) 0 | dopaminergic neuron differentiation score (ReNCell VM [2]; library: Tocriscreen) 0

Cc1nc2sccn2c(=O)c1CCN1CCC(=C(c2ccc(F)cc2)c2ccc(F)cc2)CC1 [Ritanserin]
inactive: neuronal differentiation score (ReNCell VM [1]; library: LOPAC) 0 | neuronal differentiation score (ReNCell VM [1]; library: Tocriscreen) 1 | dopaminergic neuron differentiation score (ReNCell VM [2]; library: LOPAC) 0 | dopaminergic neuron differentiation score (ReNCell VM [2]; library: Tocriscreen) 0

COc1ccccc1N1CCN(CCN2C(=O)CC3(CCCC3)CC2=O)CC1 [BMY 7378 dihydrochloride]
inactive: neuronal differentiation score (ReNCell VM [1]; library: LOPAC) 0 | neuronal differentiation score (ReNCell VM [1]; library: Tocriscreen) 0 | dopaminergic neuron differentiation score (ReNCell VM [2]; library: LOPAC) 0 | dopaminergic neuron differentiation score (ReNCell VM [2]; library: Tocriscreen) 0

CC1(C)O[C@@H]2[C@@H](CO[C@@]3(COS(N)(=O)=O)OC(C)(C)O[C@@H]23)O1 [Topiramate]
inactive: neuronal differentiation score (ReNCell VM [1]; library: Prestwick) 0 | neuronal differentiation score (ReNCell VM [1]; library: Tocriscreen) 0 | dopaminergic neuron differentiation score (ReNCell VM [2]; library: Prestwick) 0 | dopaminergic neuron differentiation score (ReNCell VM [2]; library: Tocriscreen) 0

C[C@H]1c2cccc(O)c2C(=O)C2=C(O)[C@]3(O)C(=O)C(C(N)=O)=C(O)[C@@H](N(C)C)[C@@H]3[C@@H](O)[C@@H]21 [Doxycycline hydrochloride]
inactive: neuronal differentiation score (ReNCell VM [1]; library: LOPAC) 0 | neuronal differentiation score (ReNCell VM [1]; library: Prestwick) 0 | dopaminergic neuron differentiation score (ReNCell VM [2]; library: LOPAC) 0 | dopaminergic neuron differentiation score (ReNCell VM [2]; library: Prestwick) 0

COc1ccc(Cl)cc1C(=O)NCCc1ccc(S(=O)(=O)NC(=O)NC2CCCCC2)cc1 [Glibenclamide]
inactive: neuronal differentiation score (ReNCell VM [1]; library: Prestwick) 0 | neuronal differentiation score (ReNCell VM [1]; library: Tocriscreen) 0 | dopaminergic neuron differentiation score (ReNCell VM [2]; library: Prestwick) 0 | dopaminergic neuron differentiation score (ReNCell VM [2]; library: Tocriscreen) 0

c1ccc(C2CN3CCSC3=N2)cc1 (centres undefined) [Tetramisole hydrochloride]
inactive: neuronal differentiation score (ReNCell VM [1]; library: LOPAC) 0 | neuronal differentiation score (ReNCell VM [1]; library: Prestwick) 0 | dopaminergic neuron differentiation score (ReNCell VM [2]; library: LOPAC) 0 | dopaminergic neuron differentiation score (ReNCell VM [2]; library: Prestwick) 0

CCCCCCCCc1ccc(-c2ccc(C(=O)O)cc2)cc1
inactive: neuronal differentiation score (ReNCell VM [1]; library: LOPAC) 0 | neuronal differentiation score (ReNCell VM [1]; library: Tocriscreen) 0 | dopaminergic neuron differentiation score (ReNCell VM [2]; library: LOPAC) 0 | dopaminergic neuron differentiation score (ReNCell VM [2]; library: Tocriscreen) 0

C[C@]12CC[C@@H]3c4ccc(O)cc4CC[C@H]3[C@@H]1CCC2=O [Estrone]
inactive: neuronal differentiation score (ReNCell VM [1]; library: LOPAC) 0 | neuronal differentiation score (ReNCell VM [1]; library: Prestwick) 0 | dopaminergic neuron differentiation score (ReNCell VM [2]; library: LOPAC) 0 | dopaminergic neuron differentiation score (ReNCell VM [2]; library: Prestwick) 0

C=C[C@@]1(C)CC(=O)[C@]2(O)[C@@]3(C)[C@@H](O)CCC(C)(C)[C@@H]3[C@H](O)[C@H](OC(C)=O)[C@@]2(C)O1 [Forskolin]
inactive: neuronal differentiation score (ReNCell VM [1]; library: LOPAC) 0 | neuronal differentiation score (ReNCell VM [1]; library: Tocriscreen) 1 | dopaminergic neuron differentiation score (ReNCell VM [2]; library: LOPAC) 0 | dopaminergic neuron differentiation score (ReNCell VM [2]; library: Tocriscreen) 0

CN(C)CCCO[C@@H]1[C@H]2OC(C)(C)O[C@H]2O[C@@H]1[C@H](O)CO [Amiprilose hydrochloride]
inactive: neuronal differentiation score (ReNCell VM [1]; library: LOPAC) 0 | neuronal differentiation score (ReNCell VM [1]; library: Prestwick) 0 | dopaminergic neuron differentiation score (ReNCell VM [2]; library: LOPAC) 1 | dopaminergic neuron differentiation score (ReNCell VM [2]; library: Prestwick) 0

Cc1ccccc1N1CCN(S(=O)(=O)C[C@]23CC[C@H](C[C@@H]2NC(=O)[C@@H](N)CCS(C)(=O)=O)C3(C)C)CC1 [L-368,899 hydrochloride]
inactive: neuronal differentiation score (ReNCell VM [1]; library: LOPAC) 0 | neuronal differentiation score (ReNCell VM [1]; library: Tocriscreen) 0 | dopaminergic neuron differentiation score (ReNCell VM [2]; library: LOPAC) 0 | dopaminergic neuron differentiation score (ReNCell VM [2]; library: Tocriscreen) 0

Cc1nc2c(OCc3ccccc3)cccn2c1CC#N
inactive: neuronal differentiation score (ReNCell VM [1]; library: LOPAC) -1 | neuronal differentiation score (ReNCell VM [1]; library: Tocriscreen) 0 | dopaminergic neuron differentiation score (ReNCell VM [2]; library: LOPAC) 0 | dopaminergic neuron differentiation score (ReNCell VM [2]; library: Tocriscreen) 0

CN(C)c1nc(N(C)C)nc(N(C)C)n1 [Altretamine]
inactive: neuronal differentiation score (ReNCell VM [1]; library: LOPAC) 0 | neuronal differentiation score (ReNCell VM [1]; library: Prestwick) 0 | dopaminergic neuron differentiation score (ReNCell VM [2]; library: LOPAC) 0 | dopaminergic neuron differentiation score (ReNCell VM [2]; library: Prestwick) 0

COc1cc(C(=O)OCCCN2CCCN(CCCOC(=O)c3cc(OC)c(OC)c(OC)c3)CC2)cc(OC)c1OC [Dilazep dihydrochloride]
inactive: neuronal differentiation score (ReNCell VM [1]; library: Prestwick) 0 | neuronal differentiation score (ReNCell VM [1]; library: Tocriscreen) 0 | dopaminergic neuron differentiation score (ReNCell VM [2]; library: Prestwick) 1 | dopaminergic neuron differentiation score (ReNCell VM [2]; library: Tocriscreen) 1

COc1ccccc1N1CCN(CCCCNC(=O)c2ccc3ccccc3c2)CC1
inactive: neuronal differentiation score (ReNCell VM [1]; library: LOPAC) 0 | neuronal differentiation score (ReNCell VM [1]; library: Prestwick) 0 | dopaminergic neuron differentiation score (ReNCell VM [2]; library: LOPAC) 0 | dopaminergic neuron differentiation score (ReNCell VM [2]; library: Prestwick) 0

Quoted from above, two compounds:
COc1cc(C(=O)OCCCN2CCCN(CCCOC(=O)c3cc(OC)c(OC)c(OC)c3)CC2)cc(OC)c1OC [Dilazep dihydrochloride]
inactive: neuronal differentiation score (ReNCell VM [1]; library: Prestwick) 0 | neuronal differentiation score (ReNCell VM [1]; library: Tocriscreen) 0 | dopaminergic neuron differentiation score (ReNCell VM [2]; library: Prestwick) 1 | dopaminergic neuron differentiation score (ReNCell VM [2]; library: Tocriscreen) 1

COc1ccccc1N1CCN(CCCCNC(=O)c2ccc3ccccc3c2)CC1
inactive: neuronal differentiation score (ReNCell VM [1]; library: LOPAC) 0 | neuronal differentiation score (ReNCell VM [1]; library: Prestwick) 0 | dopaminergic neuron differentiation score (ReNCell VM [2]; library: LOPAC) 0 | dopaminergic neuron differentiation score (ReNCell VM [2]; library: Prestwick) 0

The list goes on:

Cn1cnc([N+](=O)[O-])c1Sc1ncnc2[nH]cnc12 [Azathioprine]
inactive: neuronal differentiation score (ReNCell VM [1]; library: LOPAC) 0 | neuronal differentiation score (ReNCell VM [1]; library: Prestwick) 0 | dopaminergic neuron differentiation score (ReNCell VM [2]; library: LOPAC) 0 | dopaminergic neuron differentiation score (ReNCell VM [2]; library: Prestwick) 0

FC(F)(F)c1cc(COC2CCCNC2c2ccccc2)cc(C(F)(F)F)c1 [L-733,060 hydrochloride]
inactive: neuronal differentiation score (ReNCell VM [1]; library: LOPAC) 0 | neuronal differentiation score (ReNCell VM [1]; library: Tocriscreen) 0 | dopaminergic neuron differentiation score (ReNCell VM [2]; library: LOPAC) 0 | dopaminergic neuron differentiation score (ReNCell VM [2]; library: Tocriscreen) 0

Cn1cc(C(=O)OCC2CCN(CCNS(C)(=O)=O)CC2)c2ccccc21
inactive: neuronal differentiation score (ReNCell VM [1]; library: LOPAC) 0 | neuronal differentiation score (ReNCell VM [1]; library: Tocriscreen) 0 | dopaminergic neuron differentiation score (ReNCell VM [2]; library: LOPAC) 0 | dopaminergic neuron differentiation score (ReNCell VM [2]; library: Tocriscreen) 0

NC(=O)c1ccc2[nH]ccc2c1
inactive: neuronal differentiation score (ReNCell VM [1]; library: LOPAC) 0 | neuronal differentiation score (ReNCell VM [1]; library: Tocriscreen) 0 | dopaminergic neuron differentiation score (ReNCell VM [2]; library: LOPAC) 0 | dopaminergic neuron differentiation score (ReNCell VM [2]; library: Tocriscreen) 0

COc1ccc(CN(CCN(C)C)c2ccccn2)cc1 [Pyrilamine maleate]
inactive: neuronal differentiation score (ReNCell VM [1]; library: LOPAC) -1 | neuronal differentiation score (ReNCell VM [1]; library: Prestwick) 0 | dopaminergic neuron differentiation score (ReNCell VM [2]; library: LOPAC) 0 | dopaminergic neuron differentiation score (ReNCell VM [2]; library: Prestwick) 0

Cc1cc(C)c(/C=C2\C(=O)Nc3ccccc32)[nH]1
active: neuronal differentiation score (ReNCell VM [1]; library: LOPAC) 2 | dopaminergic neuron differentiation score (ReNCell VM [2]; library: LOPAC) 3
inactive: neuronal differentiation score (ReNCell VM [1]; library: Tocriscreen) 0 | dopaminergic neuron differentiation score (ReNCell VM [2]; library: Tocriscreen) 1

C1CCC(N=C(NC23CC4CC(CC(C4)C2)C3)N2CCOCC2)CC1
inactive: neuronal differentiation score (ReNCell VM [1]; library: LOPAC) 0 | neuronal differentiation score (ReNCell VM [1]; library: Tocriscreen) -1 | dopaminergic neuron differentiation score (ReNCell VM [2]; library: LOPAC) 0 | dopaminergic neuron differentiation score (ReNCell VM [2]; library: Tocriscreen) 0

CN(C)CCCN1c2ccccc2CCc2ccccc21 [Imipramine hydrochloride]
inactive: neuronal differentiation score (ReNCell VM [1]; library: LOPAC) 0 | neuronal differentiation score (ReNCell VM [1]; library: Prestwick) 0 | dopaminergic neuron differentiation score (ReNCell VM [2]; library: LOPAC) 0 | dopaminergic neuron differentiation score (ReNCell VM [2]; library: Prestwick) 0

NCCc1ccc(O)c(O)c1 [Dopamine hydrochloride]
inactive: neuronal differentiation score (ReNCell VM [1]; library: LOPAC) -1 | neuronal differentiation score (ReNCell VM [1]; library: Prestwick) 0 | dopaminergic neuron differentiation score (ReNCell VM [2]; library: LOPAC) 0 | dopaminergic neuron differentiation score (ReNCell VM [2]; library: Prestwick) 1

CC[C@H](C)C(=O)O[C@H]1C[C@@H](C)C=C2C=C[C@H](C)[C@H](CC[C@@H]3C[C@@H](O)CC(=O)O3)[C@H]21 [Lovastatin]
inactive: neuronal differentiation score (ReNCell VM [1]; library: Prestwick) 0 | neuronal differentiation score (ReNCell VM [1]; library: Tocriscreen) 0 | dopaminergic neuron differentiation score (ReNCell VM [2]; library: Prestwick) 1 | dopaminergic neuron differentiation score (ReNCell VM [2]; library: Tocriscreen) 0

— the supplement of paper PMC4635364
